In the experiment the target is T1, GFP-Sec31 (human) (UniProt O94979).
T1 sequence: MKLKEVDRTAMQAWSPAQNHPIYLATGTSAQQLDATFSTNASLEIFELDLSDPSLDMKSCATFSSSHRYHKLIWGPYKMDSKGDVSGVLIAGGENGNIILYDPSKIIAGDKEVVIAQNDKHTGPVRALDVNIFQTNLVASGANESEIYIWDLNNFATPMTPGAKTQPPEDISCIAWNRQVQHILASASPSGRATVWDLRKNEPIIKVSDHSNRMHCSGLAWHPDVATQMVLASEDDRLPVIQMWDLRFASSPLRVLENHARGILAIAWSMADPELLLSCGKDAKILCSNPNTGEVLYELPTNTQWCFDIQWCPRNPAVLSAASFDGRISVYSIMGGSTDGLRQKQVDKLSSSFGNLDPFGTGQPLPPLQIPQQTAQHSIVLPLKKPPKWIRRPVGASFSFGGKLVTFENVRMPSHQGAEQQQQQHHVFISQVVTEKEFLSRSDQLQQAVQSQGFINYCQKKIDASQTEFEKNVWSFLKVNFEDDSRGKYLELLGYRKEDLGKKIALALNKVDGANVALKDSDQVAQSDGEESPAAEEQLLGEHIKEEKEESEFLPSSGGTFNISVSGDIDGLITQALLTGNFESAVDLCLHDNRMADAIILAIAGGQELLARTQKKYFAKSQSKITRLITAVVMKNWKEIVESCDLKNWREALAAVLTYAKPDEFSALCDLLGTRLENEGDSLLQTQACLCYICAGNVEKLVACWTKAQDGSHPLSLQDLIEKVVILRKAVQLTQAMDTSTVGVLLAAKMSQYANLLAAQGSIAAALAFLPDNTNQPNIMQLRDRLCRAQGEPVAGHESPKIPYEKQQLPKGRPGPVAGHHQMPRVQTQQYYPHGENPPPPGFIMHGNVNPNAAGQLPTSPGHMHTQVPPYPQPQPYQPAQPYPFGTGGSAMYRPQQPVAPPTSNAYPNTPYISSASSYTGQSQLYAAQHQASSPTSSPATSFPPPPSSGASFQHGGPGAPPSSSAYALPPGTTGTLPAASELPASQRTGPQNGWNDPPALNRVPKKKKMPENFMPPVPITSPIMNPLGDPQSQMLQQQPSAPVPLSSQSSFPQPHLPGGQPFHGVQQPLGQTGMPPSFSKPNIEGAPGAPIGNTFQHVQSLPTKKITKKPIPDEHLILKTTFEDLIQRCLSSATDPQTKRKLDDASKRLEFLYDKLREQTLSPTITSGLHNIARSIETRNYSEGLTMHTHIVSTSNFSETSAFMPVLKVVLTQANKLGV
The experiment can be described thus: co-IP; HEK293 cells co-transfected with Myc-CK2 and GFP-Sec31, 48 h; lysed with 1 mM Ca++ in immunoprecipitation buffer; GFP-tagged protein immunoprecipitated with anti-GFP beads, blot with anti-Myc.

Sequences of proteins named here, by UniProt entry; tags and fusion partners are left off.
UniProt P68400: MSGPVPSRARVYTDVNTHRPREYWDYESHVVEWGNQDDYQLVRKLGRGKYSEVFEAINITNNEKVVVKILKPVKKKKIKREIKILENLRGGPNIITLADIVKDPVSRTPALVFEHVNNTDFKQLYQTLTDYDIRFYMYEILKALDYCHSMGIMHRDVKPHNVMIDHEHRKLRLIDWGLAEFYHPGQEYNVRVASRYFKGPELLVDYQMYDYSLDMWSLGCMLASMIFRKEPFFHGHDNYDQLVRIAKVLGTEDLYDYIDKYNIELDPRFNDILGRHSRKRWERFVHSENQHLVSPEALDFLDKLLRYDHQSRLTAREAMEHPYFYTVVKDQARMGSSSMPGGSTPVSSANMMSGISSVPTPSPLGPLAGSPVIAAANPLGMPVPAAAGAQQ

No constants are given. Whether binding was seen depends on the method and setting. In cells and extracts the contact can be indirect. Some entries that bind do so weakly or less than the wild type. Sequences can lack the tags named with a protein.

Consider “Myc-CK2 alpha 1 (from UniProt P68400 1-391) (enzyme)”, for which the binding entry was “binds”.

The values above are taken from publication PMC3548793.
